For eleven targets, log2 fold change results are on record in the supplement of paper PMC12819154, “High-throughput peptide-centric local stability assay extends protein–ligand identification to membrane proteins, tissues and bacteria” (Nature Structural & Molecular Biology, 2025).

By UniProt entry, the sequences of proteins in these tests, tags left out. Where a name states a change or a piece, a line headed by the entry shows the natural chain unless it says otherwise.
UniProt P14324: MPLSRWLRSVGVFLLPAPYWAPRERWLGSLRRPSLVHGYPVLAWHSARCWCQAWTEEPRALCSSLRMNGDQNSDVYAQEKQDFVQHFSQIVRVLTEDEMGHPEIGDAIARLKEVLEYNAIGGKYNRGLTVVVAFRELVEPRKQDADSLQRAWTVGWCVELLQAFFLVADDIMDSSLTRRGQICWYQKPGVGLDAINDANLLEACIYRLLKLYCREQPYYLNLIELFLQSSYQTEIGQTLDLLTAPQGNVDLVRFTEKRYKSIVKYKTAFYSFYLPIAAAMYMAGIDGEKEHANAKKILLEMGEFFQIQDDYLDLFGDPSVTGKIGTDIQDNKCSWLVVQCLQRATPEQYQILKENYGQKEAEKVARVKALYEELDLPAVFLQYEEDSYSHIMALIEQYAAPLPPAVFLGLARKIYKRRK
UniProt P17655: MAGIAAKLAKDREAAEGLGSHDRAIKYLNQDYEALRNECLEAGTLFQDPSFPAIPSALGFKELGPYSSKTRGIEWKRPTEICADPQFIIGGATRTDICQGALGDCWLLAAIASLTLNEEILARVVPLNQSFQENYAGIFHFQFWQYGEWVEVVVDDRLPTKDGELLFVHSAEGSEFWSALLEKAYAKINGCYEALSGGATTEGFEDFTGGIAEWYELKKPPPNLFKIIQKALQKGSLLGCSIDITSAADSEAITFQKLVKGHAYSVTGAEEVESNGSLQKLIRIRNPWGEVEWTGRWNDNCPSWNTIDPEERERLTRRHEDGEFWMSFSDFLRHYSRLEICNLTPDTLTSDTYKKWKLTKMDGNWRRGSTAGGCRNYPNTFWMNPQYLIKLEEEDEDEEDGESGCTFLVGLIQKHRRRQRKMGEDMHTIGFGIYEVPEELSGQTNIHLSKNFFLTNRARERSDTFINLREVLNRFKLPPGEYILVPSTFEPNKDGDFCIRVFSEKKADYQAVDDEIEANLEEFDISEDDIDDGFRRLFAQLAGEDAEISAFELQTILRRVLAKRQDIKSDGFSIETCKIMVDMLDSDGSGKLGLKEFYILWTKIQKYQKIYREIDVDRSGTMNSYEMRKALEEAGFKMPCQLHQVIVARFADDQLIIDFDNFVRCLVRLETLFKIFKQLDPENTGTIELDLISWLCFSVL
UniProt P15374: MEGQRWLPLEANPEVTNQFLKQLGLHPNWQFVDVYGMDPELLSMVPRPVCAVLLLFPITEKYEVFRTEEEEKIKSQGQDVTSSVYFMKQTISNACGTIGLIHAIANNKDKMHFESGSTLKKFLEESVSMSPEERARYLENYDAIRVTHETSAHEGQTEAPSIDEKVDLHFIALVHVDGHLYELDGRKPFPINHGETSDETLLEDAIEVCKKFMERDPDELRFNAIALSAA
UniProt P23919: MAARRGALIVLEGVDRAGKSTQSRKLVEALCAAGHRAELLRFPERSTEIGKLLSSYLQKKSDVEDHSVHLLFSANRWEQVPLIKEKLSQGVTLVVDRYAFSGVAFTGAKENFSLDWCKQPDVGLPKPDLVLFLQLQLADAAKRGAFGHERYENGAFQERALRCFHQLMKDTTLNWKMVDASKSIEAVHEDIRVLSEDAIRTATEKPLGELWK
UniProt P22612, whole entry, looked up: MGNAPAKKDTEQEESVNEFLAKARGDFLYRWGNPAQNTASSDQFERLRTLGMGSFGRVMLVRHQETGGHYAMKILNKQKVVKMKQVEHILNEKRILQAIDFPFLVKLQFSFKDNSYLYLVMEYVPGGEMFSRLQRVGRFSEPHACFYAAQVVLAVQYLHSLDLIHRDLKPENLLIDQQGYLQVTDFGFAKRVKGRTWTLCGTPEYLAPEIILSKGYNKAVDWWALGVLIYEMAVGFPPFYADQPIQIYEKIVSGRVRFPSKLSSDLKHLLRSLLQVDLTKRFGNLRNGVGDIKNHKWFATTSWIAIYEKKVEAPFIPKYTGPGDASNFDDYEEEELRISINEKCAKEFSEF
UniProt P25325: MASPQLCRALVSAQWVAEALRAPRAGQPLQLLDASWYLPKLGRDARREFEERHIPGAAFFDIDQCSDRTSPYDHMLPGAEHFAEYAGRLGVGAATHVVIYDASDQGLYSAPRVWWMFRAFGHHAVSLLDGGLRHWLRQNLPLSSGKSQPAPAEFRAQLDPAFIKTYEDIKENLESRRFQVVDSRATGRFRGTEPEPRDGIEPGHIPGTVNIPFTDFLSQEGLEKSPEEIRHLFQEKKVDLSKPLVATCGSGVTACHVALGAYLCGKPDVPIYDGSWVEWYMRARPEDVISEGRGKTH
UniProt P17542, whole entry: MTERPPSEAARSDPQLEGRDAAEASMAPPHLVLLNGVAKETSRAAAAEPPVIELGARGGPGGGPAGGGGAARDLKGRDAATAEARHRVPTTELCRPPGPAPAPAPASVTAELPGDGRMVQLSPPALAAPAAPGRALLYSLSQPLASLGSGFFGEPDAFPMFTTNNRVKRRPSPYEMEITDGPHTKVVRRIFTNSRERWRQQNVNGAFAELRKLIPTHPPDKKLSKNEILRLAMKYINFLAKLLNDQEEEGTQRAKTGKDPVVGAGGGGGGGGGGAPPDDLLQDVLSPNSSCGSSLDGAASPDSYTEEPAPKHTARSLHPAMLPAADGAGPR
UniProt P23677, whole entry: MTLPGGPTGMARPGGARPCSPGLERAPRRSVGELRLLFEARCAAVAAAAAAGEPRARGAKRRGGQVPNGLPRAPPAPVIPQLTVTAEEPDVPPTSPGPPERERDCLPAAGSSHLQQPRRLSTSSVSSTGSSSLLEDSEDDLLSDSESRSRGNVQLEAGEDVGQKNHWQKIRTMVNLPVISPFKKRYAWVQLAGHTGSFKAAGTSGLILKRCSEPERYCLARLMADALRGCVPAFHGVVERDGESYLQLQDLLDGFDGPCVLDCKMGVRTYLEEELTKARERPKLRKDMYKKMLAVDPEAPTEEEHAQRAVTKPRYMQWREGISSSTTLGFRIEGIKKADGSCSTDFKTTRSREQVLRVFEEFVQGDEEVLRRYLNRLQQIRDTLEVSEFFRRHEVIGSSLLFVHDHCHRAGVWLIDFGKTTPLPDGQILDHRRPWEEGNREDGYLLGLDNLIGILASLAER
UniProt P20618: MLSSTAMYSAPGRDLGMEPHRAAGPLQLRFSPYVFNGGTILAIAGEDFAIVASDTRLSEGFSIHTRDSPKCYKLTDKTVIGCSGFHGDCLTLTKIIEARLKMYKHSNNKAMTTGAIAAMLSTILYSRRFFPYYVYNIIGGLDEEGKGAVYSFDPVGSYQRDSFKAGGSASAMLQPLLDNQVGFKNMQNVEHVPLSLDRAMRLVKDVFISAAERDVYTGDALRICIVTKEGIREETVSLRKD
UniProt P16885: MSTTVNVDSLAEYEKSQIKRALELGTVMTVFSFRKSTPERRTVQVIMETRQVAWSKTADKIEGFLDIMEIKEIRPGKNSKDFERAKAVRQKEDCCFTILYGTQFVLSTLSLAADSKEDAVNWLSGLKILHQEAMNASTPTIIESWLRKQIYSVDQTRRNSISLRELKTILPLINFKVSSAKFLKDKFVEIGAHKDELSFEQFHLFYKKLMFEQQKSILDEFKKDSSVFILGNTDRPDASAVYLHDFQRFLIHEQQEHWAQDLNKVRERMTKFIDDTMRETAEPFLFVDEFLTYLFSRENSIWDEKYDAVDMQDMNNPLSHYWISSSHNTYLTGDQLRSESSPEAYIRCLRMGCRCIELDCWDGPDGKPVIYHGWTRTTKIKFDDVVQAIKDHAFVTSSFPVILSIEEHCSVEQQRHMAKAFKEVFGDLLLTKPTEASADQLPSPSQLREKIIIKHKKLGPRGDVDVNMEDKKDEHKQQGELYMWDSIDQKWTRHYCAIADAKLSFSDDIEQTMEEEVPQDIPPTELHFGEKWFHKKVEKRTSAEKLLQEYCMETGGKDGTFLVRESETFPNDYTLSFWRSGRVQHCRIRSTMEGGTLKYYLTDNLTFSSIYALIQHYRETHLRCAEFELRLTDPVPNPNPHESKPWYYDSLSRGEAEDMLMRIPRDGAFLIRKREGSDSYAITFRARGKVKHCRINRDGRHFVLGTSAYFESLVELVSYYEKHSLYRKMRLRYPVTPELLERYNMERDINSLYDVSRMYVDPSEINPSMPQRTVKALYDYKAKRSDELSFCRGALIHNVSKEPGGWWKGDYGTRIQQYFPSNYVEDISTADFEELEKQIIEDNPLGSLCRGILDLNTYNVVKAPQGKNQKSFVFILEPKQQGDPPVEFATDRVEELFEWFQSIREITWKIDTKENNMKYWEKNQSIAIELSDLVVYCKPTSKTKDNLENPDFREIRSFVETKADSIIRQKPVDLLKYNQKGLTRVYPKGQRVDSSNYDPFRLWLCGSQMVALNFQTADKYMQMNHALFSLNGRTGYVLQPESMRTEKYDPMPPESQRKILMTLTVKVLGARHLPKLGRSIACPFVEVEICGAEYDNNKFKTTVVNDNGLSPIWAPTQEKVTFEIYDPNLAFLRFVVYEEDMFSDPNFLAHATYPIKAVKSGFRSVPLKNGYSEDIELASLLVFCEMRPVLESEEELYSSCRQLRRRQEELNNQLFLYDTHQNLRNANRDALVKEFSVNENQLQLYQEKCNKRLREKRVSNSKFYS
UniProt P20073: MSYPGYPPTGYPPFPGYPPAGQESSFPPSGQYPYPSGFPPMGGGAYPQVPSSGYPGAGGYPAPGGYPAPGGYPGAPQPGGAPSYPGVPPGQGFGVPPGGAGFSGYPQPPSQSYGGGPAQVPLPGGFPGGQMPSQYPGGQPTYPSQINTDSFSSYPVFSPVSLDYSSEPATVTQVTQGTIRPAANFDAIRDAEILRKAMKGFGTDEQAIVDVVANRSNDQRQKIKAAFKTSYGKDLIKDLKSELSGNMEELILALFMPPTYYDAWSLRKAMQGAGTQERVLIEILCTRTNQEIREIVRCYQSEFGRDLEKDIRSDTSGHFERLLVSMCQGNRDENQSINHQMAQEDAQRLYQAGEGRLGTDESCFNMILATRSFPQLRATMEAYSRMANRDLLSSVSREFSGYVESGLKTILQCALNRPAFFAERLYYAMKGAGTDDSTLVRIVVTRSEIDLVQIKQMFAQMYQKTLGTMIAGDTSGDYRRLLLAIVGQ

The list shows a part of the results. Small differences around the control level are noise.

Compound in this assay: CN[C@@H]1C[C@H]2O[C@@](C)([C@@H]1OC)n1c3ccccc3c3c4c(c5c6ccccc6n2c5c31)C(=O)NC4 [staurosporine]
The assay is described as follows: log2 fold change of tryptic peptide abundance, ligand vs vehicle (limited proteolysis) (log2 ratio); higher = more trypsin-susceptible (destabilized). The settings on record: ligand concentration: 20 uM; sample: K562 cleared lysate; digestion: 4 min, 22 C (HT-PELSA RT4min, Orbitrap Astral).
As for “FDPS (peptide sequence: EVLEYNAIGGK, peptide start residue: 113) (UniProt P14324)”, the log2 fold change was -0.321. For “CAPN2 (peptide sequence: MPCQLHQVIVAR, peptide start residue: 638) (UniProt P17655)”, the log2 fold change is -0.303. As for “UCHL3 (peptide sequence: FMERDPDELR, peptide start residue: 212) (UniProt P15374)”, the log2 fold change was -0.442. For “DTYMK (peptide sequence: EKLSQGVTLVVDR, peptide start residue: 85) (UniProt P23919)” the value was -0.478; for “PRKACG (peptide sequence: KVEAPFIPK, peptide start residue: 310) (UniProt P22612)”, 0.00361; for “MPST (peptide sequence: SQPAPAEFR, peptide start residue: 147) (UniProt P25325)”, 0.408.

As for “TAL1 (peptide sequence: SDPQLEGR, peptide start residue: 12) (UniProt P17542)”, the log2 fold change is -0.115. For the target “ITPKA (peptide sequence: TLPGGPTGMAR, peptide start residue: 2) (UniProt P23677)”, the log2 fold change was determined as 0.204. Regarding “PSMB1 (peptide sequence: DVFISAAERDVYTGDALR, peptide start residue: 205) (UniProt P20618)”, the log2 fold change was -0.141.

For the target “PLCG2 (peptide sequence: GDVDVNMEDKKDEHK, peptide start residue: 462) (UniProt P16885)”, the log2 fold change amounted to 0.457. Take “ANXA7 (peptide sequence: TLGTMIAGDTSGDYRR, peptide start residue: 465) (UniProt P20073)”: the log2 fold change amounted to 0.404.
